# Primary screen of a compound library

Sequences of proteins named here, by UniProt entry; tags and fusion partners are left off.
UniProt P9WPC5, whole entry: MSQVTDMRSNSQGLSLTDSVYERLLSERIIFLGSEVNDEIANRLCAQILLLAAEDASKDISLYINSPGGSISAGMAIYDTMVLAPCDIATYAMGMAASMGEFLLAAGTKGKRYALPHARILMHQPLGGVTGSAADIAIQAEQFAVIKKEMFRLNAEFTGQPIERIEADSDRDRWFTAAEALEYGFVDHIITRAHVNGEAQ
UniProt P9WPC3, whole entry partner: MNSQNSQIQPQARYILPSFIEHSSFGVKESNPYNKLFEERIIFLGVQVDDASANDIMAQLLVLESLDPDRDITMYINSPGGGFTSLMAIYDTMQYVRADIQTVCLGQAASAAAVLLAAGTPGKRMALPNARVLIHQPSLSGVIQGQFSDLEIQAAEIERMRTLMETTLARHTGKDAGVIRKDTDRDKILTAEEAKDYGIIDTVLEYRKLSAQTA

From ChEMBL document CHEMBL3988442, “University of Dundee, Small-Polar-MMV Screening Library” (2021).

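ClpP1P2, Mycobacterium tuberculosis (UniProt P9WPC5 and UniProt P9WPC3). Protease assay of ClpP1P2, read by the AMC dye that it sets free. Concentration: 50 µM. Higher reads as stronger inhibition, judged from the few compounds that gave an IC50. Most other retested compounds had strongly negative values. Size under these conditions: about 69,000 compounds, about 10 of them at 50% or above in at least one test.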

The filed quantity is “Percent Effect” (%). The record does not define 0% and 100%; most values in the screen are far below 50% and negative numbers occur (in some assays of this library far below -100). Compounds were drawn at random from those tested, without regard to their results.

| Compound | effect |
|---|---|
| `Cc1cc(C)n(-c2ccc(CNCc3cccc(C#N)c3)cn2)n1` | -18.16% |
| `CCC(=O)Nc1cccc(C(=O)NCCC2=CSC3=NCCCN23)c1` | -7.306% |
| `Cc1cnn(CC(=O)N2CCCN(c3nc(C)cs3)CC2)c1` | -11.76% |
| `CN1CCN(C2CCN(CC(O)c3ccccc3)CC2)C1=O` (stereo not drawn) | -6.325% |
| `O=S(=O)(c1cccs1)N1CCCn2cnc(CN3CCCC3)c2C1` | 7.466% |
| `O=C(CN1CCOCC1)Nc1cc(C(F)(F)F)ccc1-n1cccc1` | -17.03% |
| `O=C(NCC1CC(=O)N(CCc2ccccc2)C1)c1c(F)cccc1F` (stereo not drawn) | -5.079% |
| `O=C(NCCc1ccn(-c2ccc(F)cc2)n1)C1CCCOC1` (stereo not drawn) | -11.06% |
| `O=C(c1ccco1)N1CCCC2(CN(Cc3ccc(F)cc3)CCO2)C1` (stereo not drawn) | -7.755% |
| `Cc1ccc2nc(-c3nc4c([nH]3)CC(C)(C)CNC4=O)cn2c1` | -2.118% |
| `COc1ccccc1NC(=O)NCC(O)(c1ccccc1)C1CC1` (stereo not drawn) | -6.484% |
| `Cn1ccnc1CC1CCCN(C(=O)Nc2cccn(C)c2=O)C1` (stereo not drawn) | 3.308% |
| `O=C(c1ccccn1)N1C[C@@H]2CC[C@H](C1)N(C(=O)c1ccsc1)C2` | 1.271% |
| `CN1CC(C(=O)NC(C)(C)C)CC1=O` (stereo not drawn) | -8.132% |
| `Cc1cnn(CC2CCCN2C(=O)c2cc3c(F)cccc3[nH]2)c1` (stereo not drawn) | -20.74% |
| `CC(C)c1noc(CC[C@@H]2CCCN3CCCC[C@H]23)n1` | 2.761% |
| `CCNC(c1ccc(F)cc1)c1cccnc1` (stereo not drawn) | 2.228% |
| `c1cnn(-c2ccc(CN3CCOC(Cn4cncn4)C3)cc2)c1` (stereo not drawn) | 6.248% |
| `Cc1ccc(-n2nnc(C(=O)NCCS(N)(=O)=O)c2C2CC2)cc1` | 5.652% |
| `CN1C[C@@H](NC(=O)CC(C)(C)C)C[C@H]1c1nc(-c2cnccn2)no1` | 0.06172% |
| `Cc1ccc(N2C[C@H](C(=O)NCC3CC3)[C@@H]3CCO[C@@H]3C2)nn1` | -6.711% |
| `CCN(CCOC)C(=O)c1ccc2c(c1)nc(N1CC[C@H](O)C1)n2C` | 2.671% |
| `COc1ccc(CNC(=O)CNc2cc3c(cc2Cl)OCCO3)cc1` | -0.8106% |
| `O=C1C[C@H]2[C@@H](CCN2C(=O)c2ccccc2)N1CCN1CCOCC1` | 1.67% |
| `CC(C)N1CCN(C)C2(CCN(C(=O)c3ccnnc3)CC2)C1=O` | -0.1463% |
| `CCOCC1CN(C(=O)C2CCOCC2)Cc2cnn(C)c21` (stereo not drawn) | -11.53% |
| `Cc1nc(CC(=O)N2CCCC2c2nc(C(C)C)no2)cs1` (stereo not drawn) | -11.75% |
| `O=C(CCc1nnc(-c2ccccc2)o1)N1CCCC1c1ccc[nH]1` (stereo not drawn) | -2.131% |
| `CC(C(=O)N1CCN(C(=O)c2ccc(F)cc2)CC1)n1ccnc1` (stereo not drawn) | -3.318% |
| `COc1ccc2[nH]cc(C(=O)N3C[C@@H](O)[C@H](NS(C)(=O)=O)C3)c2c1` | -0.7886% |
| `Cc1cccc(C)c1OCC(=O)N1CCOCC1c1ncon1` (stereo not drawn) | -20.19% |
| `O=C(N[C@H]1CN[C@H]2CCCO[C@H]21)c1cccnc1` | -2.827% |
| `CCN1CCC2(CC1)c1nc[nH]c1CCN2S(C)(=O)=O` | -5.825% |
| `Cc1cccc(CN2CCc3ncnc(-c4ccsc4)c3CC2)n1` | -5.497% |
| `CCc1oc(C(=O)OC)cc1Cn1cccc(C(F)(F)F)c1=O` | 2.982% |
| `Cc1cnc(N2CCO[C@@H]3CC(COCc4cccnc4)C[C@H]32)nc1` (stereo partly drawn) | 12.02% |
| `O=C1NCC2(CCCN(Cc3ccc(F)cc3)C2)Oc2ccccc21` (stereo not drawn) | 4.948% |
| `CC(C)CN1CCCC1c1ccc(C(=O)Nc2cc[nH]n2)s1` (stereo not drawn) | -0.1222% |
| `c1csc(CN2CCn3c(Cn4cncn4)cnc3C2)n1` | 3.492% |
| `COCCNC1(c2ccc(Cl)cc2)CCOCC1` | 11.87% |
| `N#Cc1ccccc1Cn1cncn1` | -10.79% |
| `CSCC[C@H](N)C(=O)NCc1cc2n(n1)CCCN(C(=O)N(C)C)C2` | 0.5583% |
| `CCNC(=O)c1cc2n(n1)CCCO2` | -16.35% |
| `Cc1ccc2cc(C(=O)N3CCC(O)(C(F)(F)F)CC3)ccc2n1` | -12.39% |
| `Cc1nccnc1C1CCN(C(=O)C(C)C)CC1` | 9.799% |
| `O=C(NCCCn1cccn1)c1csc2c1CCCC2` | 3.276% |
| `CCC(=O)N1CCC(Cc2cnc(Nc3cnccn3)cn2)CC1` | -4.743% |
| `CC(=O)Nc1cccc(C(C)NCC2CCS(=O)(=O)CC2)c1` (stereo not drawn) | -0.3198% |
| `CC(C)Cc1noc(CN2CCN(C(=O)c3ccco3)CC2)n1` | -9.356% |
| `O=C(Nc1ccccc1N1CCOC1=O)N1CCc2sccc2C1` | -0.8099% |
| `O=C(CSc1ccccn1)N1CCC(OCc2cccnc2)CC1` | -12.33% |
| `CN(C)C(=O)c1sc2ncccc2c1C1CNCCO1` (stereo not drawn) | 12.03% |
| `CN(C)c1ccc(C(=O)N2CCCC2c2cnn(C)c2)cn1` (stereo not drawn) | -30.28% |
| `O=C(CN1C(=O)CCC1=O)NCc1nn(C2CCCC2)c2c1CCCC2` | -2.108% |
| `c1csc(CN2CCCn3cnc(COCC4CC4)c3C2)c1` | -4.132% |
| `CN(C)c1ncc(CNC(=O)Nc2ccc(C(F)(F)F)cc2)n1C` | -4.13% |
| `Cc1ccc(NC(=O)N2CCCC(O)(CO)CC2)cc1Cl` (stereo not drawn) | -8.061% |
| `CC(C)(CNC(=O)C1CCCN1S(C)(=O)=O)N1CCOCC1` (stereo not drawn) | 6.251% |
| `CCOC(C)C(=O)Nc1ccnn1-c1ccccc1C` (stereo not drawn) | -3.291% |
| `CC(C)c1n[nH]c(C2CN(C(=O)C3=COCC3)CCO2)n1` (stereo not drawn) | 2.539% |
| `c1cnc(N2CC[C@@H](N3CCOCC3)[C@@H]2Cc2ccncc2)nc1` | -2.732% |
| `Cc1ccc2c(n1)N(Cc1cccnc1)CCN(C1CCOCC1)C2` | 10.75% |
| `CC(=O)N1CC(C(=O)NCCc2ncc(C)s2)C1` | -10.05% |
| `Cn1cc(CNCC2(N3CCCCC3)Cc3ccccc3C2)cn1` | -2.966% |
| `Cc1nnc(C(NS(=O)(=O)c2cc(F)c(C)cc2F)C(C)C)[nH]1` (stereo not drawn) | 0.8918% |
| `O=C(O)c1ccc(S(=O)(=O)Nc2c(F)cccc2-n2cccn2)cc1` | 2.94% |
| `Cc1cc(NC(=O)CNC(C)(C)c2ccc3c(c2)OCCO3)no1` | -3.489% |

8 of the entries, repeated:

Compound	effect
O=C(CCc1nnc(-c2ccccc2)o1)N1CCCC1c1ccc[nH]1 (stereo not drawn)	-2.131%
CCOCC1CN(C(=O)C2CCOCC2)Cc2cnn(C)c21 (stereo not drawn)	-11.53%
O=C(c1ccccn1)N1C[C@@H]2CC[C@H](C1)N(C(=O)c1ccsc1)C2	1.271%
CN1C[C@@H](NC(=O)CC(C)(C)C)C[C@H]1c1nc(-c2cnccn2)no1	0.06172%
Cc1cccc(C)c1OCC(=O)N1CCOCC1c1ncon1 (stereo not drawn)	-20.19%
Cc1ccc(N2C[C@H](C(=O)NCC3CC3)[C@@H]3CCO[C@@H]3C2)nn1	-6.711%
CC(C)Cc1noc(CN2CCN(C(=O)c3ccco3)CC2)n1	-9.356%
COc1ccc(CNC(=O)CNc2cc3c(cc2Cl)OCCO3)cc1	-0.8106%